1 substance from article PMC12435843 can be followed below.

By UniProt entry, the sequences of proteins in these tests, tags left out.
UniProt Q01147: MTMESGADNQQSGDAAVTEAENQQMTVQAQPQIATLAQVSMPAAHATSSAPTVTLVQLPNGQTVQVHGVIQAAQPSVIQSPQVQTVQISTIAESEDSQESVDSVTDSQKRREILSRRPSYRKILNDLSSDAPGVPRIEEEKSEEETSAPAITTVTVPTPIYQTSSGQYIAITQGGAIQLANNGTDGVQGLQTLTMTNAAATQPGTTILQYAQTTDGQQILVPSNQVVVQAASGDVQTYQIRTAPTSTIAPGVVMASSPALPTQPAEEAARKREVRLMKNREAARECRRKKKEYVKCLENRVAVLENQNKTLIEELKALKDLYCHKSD

Results are given in words; binding and its absence hold for the method and conditions named. Binding seen in cells or lysates may run through a third protein. Some binding calls cover weakened binding; strength is not graded here.

The assay deals with T1, CREB-regulated transcription coactivator 2 (mouse (endogenous in mouse liver)) (UniProt Q3U182).
T1 sequence: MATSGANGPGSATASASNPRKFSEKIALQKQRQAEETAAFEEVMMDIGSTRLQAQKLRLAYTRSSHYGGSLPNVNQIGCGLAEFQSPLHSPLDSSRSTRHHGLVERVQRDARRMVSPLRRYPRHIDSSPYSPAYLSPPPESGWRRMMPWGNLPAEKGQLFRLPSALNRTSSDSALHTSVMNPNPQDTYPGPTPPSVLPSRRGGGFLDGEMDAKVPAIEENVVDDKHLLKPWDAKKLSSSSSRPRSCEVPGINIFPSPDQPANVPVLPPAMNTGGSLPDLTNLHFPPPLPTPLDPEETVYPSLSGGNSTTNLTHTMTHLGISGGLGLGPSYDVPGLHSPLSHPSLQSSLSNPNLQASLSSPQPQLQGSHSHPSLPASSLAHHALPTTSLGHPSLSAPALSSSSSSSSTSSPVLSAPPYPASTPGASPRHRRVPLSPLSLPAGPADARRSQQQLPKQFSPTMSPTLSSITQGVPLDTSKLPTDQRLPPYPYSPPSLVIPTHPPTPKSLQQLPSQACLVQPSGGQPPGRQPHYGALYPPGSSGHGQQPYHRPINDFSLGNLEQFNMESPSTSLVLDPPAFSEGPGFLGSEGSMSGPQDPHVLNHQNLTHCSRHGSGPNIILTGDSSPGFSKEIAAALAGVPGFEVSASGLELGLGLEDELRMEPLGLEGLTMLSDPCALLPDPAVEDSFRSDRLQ
Description: co-IP; mouse liver tissue, mice fasted 6 hours before sacrifice; mice injected with Ctrl (pAdV5), hGULL or mGULL adenoviruses (Figure 3C), or obese mice injected with tri-GalNAc-NC, tri-GalNAc-hGULF or tri-GalNAc-mGULF RNA oligos (Figure 7B); which protein was precipitated is not told.

As for CREB (from UniProt Q01147 1-327), the binding entry was “binds”.
